Measured data: PubChem BioAssay AID1259308 (NCATS, 2017)
Here is a random part of about 59,000 reagents. About 1,510 of them (2.6%) were called active. 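Calls use total luciferase alone and ignore viability, so some active siRNAs may act by altering cell number.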 Reagents against one gene are numbered here.

Screen: 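Knock-downs that increase output of a recombinant reporter protein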 (primary screen)
System: human HEK293 embryonic kidney cells stably expressing firefly luciferase (HEK-CMV-Luc2-Hygro)
Reagents: single siRNA against human genes, 0.8 pmol siRNA per well
Duration: 72 h
Detection: 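Luciferase light (ONE-Glo) measured on one replicate plate set and viability (CellTiter-Glo) on the other, scaled to a negative control siRNA, with robust z-scores and luciferase per cell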
Direction: total luciferase, z-score and total luciferase, % of control: higher = more reporter protein produced; luciferase per cell, z-score: higher = more reporter output per viable cell; viable cells, % of control: higher = more viable cells
Active means: 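Active when the median/MAD z-score for overall luciferase is greater than 3; a gene was taken forward for validation with new siRNAs if at least two of its three siRNAs passed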
Meaning of the calls: active = raised luciferase; inactive = no rise

no.	gene	reagent	total luciferase, z-score	total luciferase, % of control	luciferase per cell, z-score	viable cells, % of control	call
1	ZMYM4 (zinc finger MYM-type containing 4)	1	-0.989	62.2	-1.04	91.5	inactive
2	ZMYM4 (zinc finger MYM-type containing 4)	2	0.681	95.4	0.483	93.9	inactive
3	ZMYM4 (zinc finger MYM-type containing 4)	3	-0.754	66.9	-0.994	97.1	inactive
4	AHCYL2 (adenosylhomocysteinase like 2)	1	0.368	89.2	-0.0604	101	inactive
5	AHCYL2 (adenosylhomocysteinase like 2)	2	1.28	107	0.775	97.8	inactive
6	AHCYL2 (adenosylhomocysteinase like 2)	3	-2.41	34	-3.06	85.2	inactive
7	ITGAV (integrin subunit alpha V)	1	-0.248	76.9	-0.839	107	inactive
8	ITGAV (integrin subunit alpha V)	2	2.16	125	1.81	86.7	inactive
9	ITGAV (integrin subunit alpha V)	3	-0.0646	80.6	-0.168	94.2	inactive
10	PHYHIP (phytanoyl-CoA 2-hydroxylase interacting protein)	1	0.563	93.1	0.833	83.5	inactive
11	PHYHIP (phytanoyl-CoA 2-hydroxylase interacting protein)	2	-1.96	42.9	-0.656	57	inactive
12	PHYHIP (phytanoyl-CoA 2-hydroxylase interacting protein)	3	-1.63	49.6	1.18	40.6	inactive
13	DCDC2B (doublecortin domain containing 2B)	1	0.34	88.7	1.42	68.2	inactive
14	DCDC2B (doublecortin domain containing 2B)	2	-0.453	72.9	-0.139	84.5	inactive
15	DCDC2B (doublecortin domain containing 2B)	3	-0.344	75	-0.625	98.9	inactive
16	PRMT8 (protein arginine methyltransferase 8)	1	0.545	92.7	-0.341	113	inactive
17	PRMT8 (protein arginine methyltransferase 8)	2	0.0927	83.7	-0.421	105	inactive
18	PRMT8 (protein arginine methyltransferase 8)	3	-0.472	72.5	0.539	70.3	inactive
19	CBFB (core-binding factor subunit beta)	1	-0.897	64	-0.935	91.6	inactive
20	CBFB (core-binding factor subunit beta)	2	0.87	99.2	1.39	76.9	inactive
21	CBFB (core-binding factor subunit beta)	3	-1.43	53.4	-1.01	77.9	inactive
22	FANCG (FA complementation group G)	1	0.165	85.2	0.217	89.9	inactive
23	FANCG (FA complementation group G)	2	-1.48	52.5	-0.277	63.1	inactive
24	FANCG (FA complementation group G)	3	-0.513	71.7	0.751	65.7	inactive
25	SPIN4 (spindlin family member 4)	1	0.668	95.2	0.349	97	inactive
26	SPIN4 (spindlin family member 4)	2	1.67	115	0.701	107	inactive
27	SPIN4 (spindlin family member 4)	3	1.5	112	0.719	103	inactive
28	CPNE2 (copine 2)	1	1.6	114	1.71	81.1	inactive
29	CPNE2 (copine 2)	2	1.03	102	1.31	80.9	inactive
30	CPNE2 (copine 2)	3	0.108	84	1.54	62.6	inactive
31	OSBPL5 (oxysterol binding protein like 5)	1	1.11	104	0.499	102	inactive
32	OSBPL5 (oxysterol binding protein like 5)	2	0.343	88.7	-0.0506	100	inactive
33	OSBPL5 (oxysterol binding protein like 5)	3	1.26	107	0.389	108	inactive
34	CA7 (carbonic anhydrase 7)	1	0.321	88.3	-0.209	104	inactive
35	CA7 (carbonic anhydrase 7)	2	0.922	100	1.09	84.1	inactive
36	CA7 (carbonic anhydrase 7)	3	1.1	104	0.596	99.1	inactive
37	CABIN1 (calcineurin binding protein 1)	1	-0.322	75.5	-0.685	101	inactive
38	CABIN1 (calcineurin binding protein 1)	2	0.937	101	0.208	106	inactive
39	CABIN1 (calcineurin binding protein 1)	3	-0.744	67.1	-1.4	108	inactive
40	ZDHHC1 (zDHHC palmitoyltransferase 1)	1	-1.27	56.5	-0.158	65.9	inactive
41	ZDHHC1 (zDHHC palmitoyltransferase 1)	2	-0.289	76.1	-0.0926	87.2	inactive
42	ZDHHC1 (zDHHC palmitoyltransferase 1)	3	2.31	128	2.79	68.6	inactive
43	ARMC6 (armadillo repeat containing 6)	1	1.3	108	0.574	104	inactive
44	ARMC6 (armadillo repeat containing 6)	2	-0.177	78.4	-0.208	92.5	inactive
45	ARMC6 (armadillo repeat containing 6)	3	2.18	125	1.85	86.1	inactive
46	OR10W1 (olfactory receptor family 10 subfamily W member 1)	1	-0.0671	80.6	-0.313	97.8	inactive
47	OR10W1 (olfactory receptor family 10 subfamily W member 1)	2	-0.765	66.7	0.948	58.1	inactive
48	OR10W1 (olfactory receptor family 10 subfamily W member 1)	3	-1.29	56.3	-1.79	101	inactive
49	ZNF548 (zinc finger protein 548)	1	0.265	87.2	0.208	92.2	inactive
50	ZNF548 (zinc finger protein 548)	2	-0.84	65.2	-0.937	93.2	inactive
51	ZNF548 (zinc finger protein 548)	3	-0.00885	81.7	0.447	81.2	inactive
52	RMI1 (RecQ mediated genome instability 1)	1	-1.61	49.9	-1.77	88.9	inactive
53	RMI1 (RecQ mediated genome instability 1)	2	-0.216	77.6	-0.0917	88.8	inactive
54	RMI1 (RecQ mediated genome instability 1)	3	-1.97	42.7	-2.77	99.1	inactive
55	SAMD5 (sterile alpha motif domain containing 5)	1	-0.644	69.1	-0.247	82.4	inactive
56	SAMD5 (sterile alpha motif domain containing 5)	2	-0.537	71.2	-0.297	86	inactive
57	SAMD5 (sterile alpha motif domain containing 5)	3	-0.315	75.6	-0.211	89.3	inactive

Part of the list above, reduced to “total luciferase, % of control”.
ARMC6 (armadillo repeat containing 6) #3 = 125
OR10W1 (olfactory receptor family 10 subfamily W member 1) #1 = 80.6
OR10W1 (olfactory receptor family 10 subfamily W member 1) #2 = 66.7
OR10W1 (olfactory receptor family 10 subfamily W member 1) #3 = 56.3
ZNF548 (zinc finger protein 548) #1 = 87.2
ZNF548 (zinc finger protein 548) #2 = 65.2
ZNF548 (zinc finger protein 548) #3 = 81.7
RMI1 (RecQ mediated genome instability 1) #1 = 49.9
